{
  "sequences": {"note": "Sequences of proteins named here, by UniProt entry; tags and fusion partners are left off. A change or cut given only in a name is not applied to a line headed by its entry. Residues count along the entry.", "UniProt Q9Z2G6, residues 22-790": "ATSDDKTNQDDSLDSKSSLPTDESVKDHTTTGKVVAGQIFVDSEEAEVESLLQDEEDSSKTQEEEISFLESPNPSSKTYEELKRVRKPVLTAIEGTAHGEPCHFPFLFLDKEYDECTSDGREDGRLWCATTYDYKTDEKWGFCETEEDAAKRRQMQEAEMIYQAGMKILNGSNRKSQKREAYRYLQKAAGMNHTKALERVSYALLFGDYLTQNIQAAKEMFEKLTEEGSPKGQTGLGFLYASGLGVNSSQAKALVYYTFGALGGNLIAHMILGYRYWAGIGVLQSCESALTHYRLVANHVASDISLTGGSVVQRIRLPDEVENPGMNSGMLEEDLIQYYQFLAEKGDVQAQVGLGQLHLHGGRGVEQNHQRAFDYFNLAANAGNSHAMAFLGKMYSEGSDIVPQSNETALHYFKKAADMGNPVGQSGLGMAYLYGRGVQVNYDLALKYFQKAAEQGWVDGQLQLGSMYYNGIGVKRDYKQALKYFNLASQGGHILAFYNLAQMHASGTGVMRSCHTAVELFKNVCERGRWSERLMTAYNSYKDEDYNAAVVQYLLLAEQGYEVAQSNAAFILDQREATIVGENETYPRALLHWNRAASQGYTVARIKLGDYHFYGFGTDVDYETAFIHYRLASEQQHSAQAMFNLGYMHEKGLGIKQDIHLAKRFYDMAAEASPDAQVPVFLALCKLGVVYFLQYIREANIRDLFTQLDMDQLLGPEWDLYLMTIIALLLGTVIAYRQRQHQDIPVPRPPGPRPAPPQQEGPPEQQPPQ", "UniProt P02454": "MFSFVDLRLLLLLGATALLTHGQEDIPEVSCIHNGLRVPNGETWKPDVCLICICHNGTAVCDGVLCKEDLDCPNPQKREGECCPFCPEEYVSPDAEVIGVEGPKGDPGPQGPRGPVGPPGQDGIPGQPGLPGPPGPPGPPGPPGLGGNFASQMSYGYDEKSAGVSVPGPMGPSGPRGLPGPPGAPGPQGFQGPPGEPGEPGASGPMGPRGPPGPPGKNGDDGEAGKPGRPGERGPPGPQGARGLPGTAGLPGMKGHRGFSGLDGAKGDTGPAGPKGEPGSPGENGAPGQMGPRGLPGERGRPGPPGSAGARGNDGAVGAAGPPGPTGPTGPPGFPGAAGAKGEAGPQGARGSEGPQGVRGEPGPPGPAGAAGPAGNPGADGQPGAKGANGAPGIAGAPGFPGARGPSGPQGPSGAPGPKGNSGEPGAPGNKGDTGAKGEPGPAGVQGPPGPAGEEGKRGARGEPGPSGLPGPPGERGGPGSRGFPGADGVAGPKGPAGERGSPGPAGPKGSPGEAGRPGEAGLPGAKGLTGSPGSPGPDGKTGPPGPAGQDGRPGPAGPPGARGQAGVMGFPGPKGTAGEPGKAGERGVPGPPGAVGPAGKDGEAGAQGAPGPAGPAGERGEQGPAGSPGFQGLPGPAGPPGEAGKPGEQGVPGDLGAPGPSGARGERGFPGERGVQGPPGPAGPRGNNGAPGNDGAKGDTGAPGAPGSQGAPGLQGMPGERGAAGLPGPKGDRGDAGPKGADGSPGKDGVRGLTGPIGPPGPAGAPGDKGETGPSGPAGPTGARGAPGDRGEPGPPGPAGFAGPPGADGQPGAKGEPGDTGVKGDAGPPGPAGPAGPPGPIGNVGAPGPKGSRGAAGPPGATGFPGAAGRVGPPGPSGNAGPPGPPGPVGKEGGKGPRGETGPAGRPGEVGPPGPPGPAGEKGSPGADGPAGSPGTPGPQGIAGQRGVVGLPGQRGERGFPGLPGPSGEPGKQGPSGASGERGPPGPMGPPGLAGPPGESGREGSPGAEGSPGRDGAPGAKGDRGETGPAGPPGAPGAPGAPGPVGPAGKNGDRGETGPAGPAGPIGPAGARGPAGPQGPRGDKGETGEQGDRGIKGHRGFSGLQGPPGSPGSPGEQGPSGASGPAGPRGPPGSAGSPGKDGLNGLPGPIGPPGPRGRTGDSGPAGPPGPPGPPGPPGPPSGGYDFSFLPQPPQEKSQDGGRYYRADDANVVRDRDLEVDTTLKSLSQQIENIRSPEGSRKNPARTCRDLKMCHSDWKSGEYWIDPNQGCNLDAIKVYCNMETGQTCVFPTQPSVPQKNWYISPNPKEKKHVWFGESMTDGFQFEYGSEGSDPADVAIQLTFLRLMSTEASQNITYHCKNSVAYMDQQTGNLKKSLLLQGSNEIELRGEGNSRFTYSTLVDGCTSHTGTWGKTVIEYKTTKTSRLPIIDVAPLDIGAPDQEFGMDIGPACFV"},
  "source": "paper PMC10879544",
  "key": {"[1]": {"biological_target": "WT SEL1L (full length murine SEL1L with C-terminal MYC and FLAG tags) (mouse) (UniProt Q9Z2G6)", "assay": "co-IP; WT or ΔFN2 SEL1L purified with Myc-trap agarose (purity not complete) incubated with rat tail collagen, then co-IP; cell-free; both purified"}, "[2]": {"biological_target": "WT SEL1L (full length murine SEL1L with C-terminal MYC and FLAG tags) (mouse) (UniProt Q9Z2G6)", "assay": "co-IP; WT or ΔFN2 SEL1L purified with anti-FLAG magnetic agarose (improved purity, not complete) incubated with rat tail collagen, then co-IP via anti-MYC; cell-free; both purified"}},
  "note": "These are yes or no findings as the source states them, for the method shown. Some results given as binding are weak or reduced against the parent protein; the word gives no strength.",
  "data": [
    {"substance": "rat tail collagen (EMD Millipore) (from UniProt P02454 152-1207; P02466 86-1125) (complex)", "values": [
      {"measurement": "binding", "setting": "[1]", "value": "binds"},
      {"measurement": "binding", "setting": "[2]", "value": "binds"}
    ]}
  ]
}
